From the supplement of paper PMC10849652
This is one part of the list.

The chains behind the UniProt entries cited, without tags or fusion partners. Where a name states a change or a piece, a line headed by the entry shows the natural chain unless it says otherwise.
UniProt Q6UX04: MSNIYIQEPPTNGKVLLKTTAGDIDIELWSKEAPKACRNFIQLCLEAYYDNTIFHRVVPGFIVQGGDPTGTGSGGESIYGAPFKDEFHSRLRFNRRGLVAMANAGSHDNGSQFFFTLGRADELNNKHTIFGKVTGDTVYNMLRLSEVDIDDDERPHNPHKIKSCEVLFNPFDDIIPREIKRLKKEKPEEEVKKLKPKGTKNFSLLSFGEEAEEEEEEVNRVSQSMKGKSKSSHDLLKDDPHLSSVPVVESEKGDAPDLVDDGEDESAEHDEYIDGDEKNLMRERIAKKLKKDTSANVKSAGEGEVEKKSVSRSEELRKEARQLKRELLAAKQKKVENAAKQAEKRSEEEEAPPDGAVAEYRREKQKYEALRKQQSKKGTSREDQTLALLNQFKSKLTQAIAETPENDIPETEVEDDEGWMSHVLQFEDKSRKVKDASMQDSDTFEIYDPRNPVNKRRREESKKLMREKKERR
UniProt E9PJD7, whole entry, looked up: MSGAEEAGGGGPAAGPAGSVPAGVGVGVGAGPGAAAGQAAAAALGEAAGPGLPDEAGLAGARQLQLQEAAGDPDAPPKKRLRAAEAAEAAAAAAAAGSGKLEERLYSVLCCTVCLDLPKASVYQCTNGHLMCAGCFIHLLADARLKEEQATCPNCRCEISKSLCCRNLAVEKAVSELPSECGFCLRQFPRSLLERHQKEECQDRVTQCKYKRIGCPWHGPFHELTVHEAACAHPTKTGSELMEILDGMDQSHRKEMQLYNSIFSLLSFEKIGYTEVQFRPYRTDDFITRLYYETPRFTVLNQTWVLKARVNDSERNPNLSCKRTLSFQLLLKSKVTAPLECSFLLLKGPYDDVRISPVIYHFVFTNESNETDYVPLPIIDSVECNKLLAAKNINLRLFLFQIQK
UniProt P27707: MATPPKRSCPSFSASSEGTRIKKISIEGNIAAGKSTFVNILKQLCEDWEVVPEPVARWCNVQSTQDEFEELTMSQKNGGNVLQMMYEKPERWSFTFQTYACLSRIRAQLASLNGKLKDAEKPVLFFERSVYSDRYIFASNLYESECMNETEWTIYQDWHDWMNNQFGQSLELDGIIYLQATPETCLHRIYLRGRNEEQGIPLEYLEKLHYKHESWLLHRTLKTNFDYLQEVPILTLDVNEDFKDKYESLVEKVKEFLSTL
UniProt Q7L1T6: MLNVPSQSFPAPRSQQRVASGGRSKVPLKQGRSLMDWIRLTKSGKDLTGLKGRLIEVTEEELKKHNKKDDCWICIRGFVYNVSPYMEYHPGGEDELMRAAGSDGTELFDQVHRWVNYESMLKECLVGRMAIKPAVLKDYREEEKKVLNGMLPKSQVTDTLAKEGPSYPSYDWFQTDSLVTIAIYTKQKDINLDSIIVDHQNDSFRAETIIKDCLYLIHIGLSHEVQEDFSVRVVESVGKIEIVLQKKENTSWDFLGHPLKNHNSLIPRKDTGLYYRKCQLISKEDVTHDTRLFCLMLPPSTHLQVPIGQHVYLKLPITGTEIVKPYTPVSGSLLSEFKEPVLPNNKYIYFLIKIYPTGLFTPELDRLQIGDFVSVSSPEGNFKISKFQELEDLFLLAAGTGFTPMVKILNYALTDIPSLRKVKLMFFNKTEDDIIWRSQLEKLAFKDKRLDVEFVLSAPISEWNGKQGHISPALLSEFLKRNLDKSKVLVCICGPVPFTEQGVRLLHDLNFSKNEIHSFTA
UniProt P07108: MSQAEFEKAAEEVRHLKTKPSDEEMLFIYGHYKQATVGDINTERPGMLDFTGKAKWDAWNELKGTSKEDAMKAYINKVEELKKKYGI
UniProt P01034: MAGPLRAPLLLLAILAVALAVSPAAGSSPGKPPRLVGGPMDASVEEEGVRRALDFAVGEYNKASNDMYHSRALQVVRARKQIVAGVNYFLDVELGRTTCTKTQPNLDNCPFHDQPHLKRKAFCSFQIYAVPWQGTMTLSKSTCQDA
UniProt P32321: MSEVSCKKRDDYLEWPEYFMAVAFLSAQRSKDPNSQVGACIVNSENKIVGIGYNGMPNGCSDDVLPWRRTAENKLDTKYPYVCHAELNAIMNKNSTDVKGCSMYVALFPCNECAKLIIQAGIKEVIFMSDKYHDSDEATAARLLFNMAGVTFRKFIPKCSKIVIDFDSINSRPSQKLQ
UniProt P49447: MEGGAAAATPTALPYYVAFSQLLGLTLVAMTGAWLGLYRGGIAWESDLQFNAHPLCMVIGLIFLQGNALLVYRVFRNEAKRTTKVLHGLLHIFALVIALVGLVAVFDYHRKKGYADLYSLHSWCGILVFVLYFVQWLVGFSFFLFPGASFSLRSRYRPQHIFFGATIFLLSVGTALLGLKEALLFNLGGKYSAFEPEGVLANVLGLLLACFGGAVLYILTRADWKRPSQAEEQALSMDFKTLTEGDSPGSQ
UniProt Q96F07, whole entry, looked up: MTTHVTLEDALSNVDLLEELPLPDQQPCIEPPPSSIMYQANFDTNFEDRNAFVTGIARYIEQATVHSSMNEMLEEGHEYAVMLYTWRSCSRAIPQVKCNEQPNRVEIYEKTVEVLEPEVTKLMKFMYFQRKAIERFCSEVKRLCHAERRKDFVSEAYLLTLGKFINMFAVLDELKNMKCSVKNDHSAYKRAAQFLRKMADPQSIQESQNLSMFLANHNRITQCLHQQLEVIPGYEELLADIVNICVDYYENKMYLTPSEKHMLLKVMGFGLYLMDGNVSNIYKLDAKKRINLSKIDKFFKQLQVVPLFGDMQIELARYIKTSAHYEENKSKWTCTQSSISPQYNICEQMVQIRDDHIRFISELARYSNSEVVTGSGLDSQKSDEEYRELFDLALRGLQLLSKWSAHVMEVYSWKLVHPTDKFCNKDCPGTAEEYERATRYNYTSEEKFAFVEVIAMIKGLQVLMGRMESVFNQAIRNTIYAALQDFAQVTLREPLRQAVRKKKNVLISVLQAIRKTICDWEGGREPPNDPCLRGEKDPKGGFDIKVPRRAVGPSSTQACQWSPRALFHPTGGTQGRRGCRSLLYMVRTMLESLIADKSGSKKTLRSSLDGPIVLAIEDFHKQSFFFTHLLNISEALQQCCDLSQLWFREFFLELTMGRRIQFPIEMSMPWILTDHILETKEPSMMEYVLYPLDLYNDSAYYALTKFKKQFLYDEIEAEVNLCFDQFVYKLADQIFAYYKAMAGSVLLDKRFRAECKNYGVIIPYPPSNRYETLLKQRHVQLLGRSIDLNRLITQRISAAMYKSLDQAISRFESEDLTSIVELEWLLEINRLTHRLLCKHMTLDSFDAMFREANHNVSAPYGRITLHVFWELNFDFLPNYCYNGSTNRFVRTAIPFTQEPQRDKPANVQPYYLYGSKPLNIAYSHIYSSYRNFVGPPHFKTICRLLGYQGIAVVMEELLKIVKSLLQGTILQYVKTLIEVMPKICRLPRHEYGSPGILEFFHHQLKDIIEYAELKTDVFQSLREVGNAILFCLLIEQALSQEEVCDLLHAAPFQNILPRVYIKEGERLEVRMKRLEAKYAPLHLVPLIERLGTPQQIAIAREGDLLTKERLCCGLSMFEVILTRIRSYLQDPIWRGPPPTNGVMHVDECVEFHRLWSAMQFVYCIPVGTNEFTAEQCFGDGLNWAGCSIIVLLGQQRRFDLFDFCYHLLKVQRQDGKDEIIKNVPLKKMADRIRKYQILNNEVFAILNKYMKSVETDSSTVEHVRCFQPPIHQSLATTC
UniProt P0DMU8: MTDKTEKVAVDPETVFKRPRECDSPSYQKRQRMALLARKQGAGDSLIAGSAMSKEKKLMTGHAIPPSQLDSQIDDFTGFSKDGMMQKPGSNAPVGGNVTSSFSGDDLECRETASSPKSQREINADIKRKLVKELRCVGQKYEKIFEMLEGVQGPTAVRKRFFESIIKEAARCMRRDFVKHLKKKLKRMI
UniProt Q9UJU6: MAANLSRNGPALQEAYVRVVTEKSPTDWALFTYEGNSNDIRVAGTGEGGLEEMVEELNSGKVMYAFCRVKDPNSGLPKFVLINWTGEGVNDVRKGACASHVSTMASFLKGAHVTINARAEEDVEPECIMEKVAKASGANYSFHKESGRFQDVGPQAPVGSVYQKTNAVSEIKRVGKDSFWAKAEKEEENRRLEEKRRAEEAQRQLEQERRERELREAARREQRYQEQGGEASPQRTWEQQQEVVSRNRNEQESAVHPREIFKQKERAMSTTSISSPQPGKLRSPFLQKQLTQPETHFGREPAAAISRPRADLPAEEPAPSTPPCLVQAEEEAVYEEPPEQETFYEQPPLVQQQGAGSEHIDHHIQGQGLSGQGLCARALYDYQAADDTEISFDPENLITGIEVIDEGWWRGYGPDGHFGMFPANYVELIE
UniProt Q14999: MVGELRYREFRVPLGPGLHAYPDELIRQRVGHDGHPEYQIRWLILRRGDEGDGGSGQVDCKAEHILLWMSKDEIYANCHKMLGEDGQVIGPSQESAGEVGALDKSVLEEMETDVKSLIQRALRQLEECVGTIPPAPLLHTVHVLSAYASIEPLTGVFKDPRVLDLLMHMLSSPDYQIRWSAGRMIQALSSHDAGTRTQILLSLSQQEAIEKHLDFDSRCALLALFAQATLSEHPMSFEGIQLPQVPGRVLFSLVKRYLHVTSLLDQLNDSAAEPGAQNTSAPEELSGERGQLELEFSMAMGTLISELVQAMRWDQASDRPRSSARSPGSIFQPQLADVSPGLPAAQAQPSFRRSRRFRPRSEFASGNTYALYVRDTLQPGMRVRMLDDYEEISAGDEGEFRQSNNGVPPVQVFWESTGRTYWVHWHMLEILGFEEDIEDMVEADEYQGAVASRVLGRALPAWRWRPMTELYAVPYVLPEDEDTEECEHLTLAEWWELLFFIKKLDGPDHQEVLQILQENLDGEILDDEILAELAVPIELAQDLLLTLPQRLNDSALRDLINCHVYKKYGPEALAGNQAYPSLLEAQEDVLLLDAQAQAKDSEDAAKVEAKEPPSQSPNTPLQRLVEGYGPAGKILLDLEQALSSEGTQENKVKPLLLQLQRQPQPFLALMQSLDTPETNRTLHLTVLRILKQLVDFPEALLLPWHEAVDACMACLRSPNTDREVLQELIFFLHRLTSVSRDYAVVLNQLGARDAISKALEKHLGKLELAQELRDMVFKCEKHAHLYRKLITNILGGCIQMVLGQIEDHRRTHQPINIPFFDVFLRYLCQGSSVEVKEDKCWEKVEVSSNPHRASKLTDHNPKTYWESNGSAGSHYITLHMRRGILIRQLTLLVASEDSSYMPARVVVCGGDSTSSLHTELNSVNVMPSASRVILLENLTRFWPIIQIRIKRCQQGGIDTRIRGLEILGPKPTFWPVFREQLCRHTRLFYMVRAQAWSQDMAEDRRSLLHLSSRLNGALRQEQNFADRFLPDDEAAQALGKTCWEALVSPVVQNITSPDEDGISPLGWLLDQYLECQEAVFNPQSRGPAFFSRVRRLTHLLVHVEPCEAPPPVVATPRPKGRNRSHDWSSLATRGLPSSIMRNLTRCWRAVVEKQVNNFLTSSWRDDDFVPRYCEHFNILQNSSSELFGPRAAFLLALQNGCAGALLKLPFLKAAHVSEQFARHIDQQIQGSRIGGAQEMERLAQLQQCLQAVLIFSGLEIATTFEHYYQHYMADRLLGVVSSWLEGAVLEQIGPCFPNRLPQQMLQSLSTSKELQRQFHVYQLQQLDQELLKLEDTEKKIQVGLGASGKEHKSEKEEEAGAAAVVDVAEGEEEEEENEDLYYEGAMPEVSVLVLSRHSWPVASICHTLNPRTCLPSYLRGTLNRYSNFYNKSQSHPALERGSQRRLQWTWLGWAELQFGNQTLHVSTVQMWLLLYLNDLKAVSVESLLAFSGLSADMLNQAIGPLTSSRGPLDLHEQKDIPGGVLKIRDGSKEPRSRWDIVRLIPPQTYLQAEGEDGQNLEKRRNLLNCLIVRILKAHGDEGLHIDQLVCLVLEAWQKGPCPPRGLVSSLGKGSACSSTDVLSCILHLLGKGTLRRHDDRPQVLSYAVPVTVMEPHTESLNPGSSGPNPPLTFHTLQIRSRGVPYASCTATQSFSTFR
UniProt Q15438: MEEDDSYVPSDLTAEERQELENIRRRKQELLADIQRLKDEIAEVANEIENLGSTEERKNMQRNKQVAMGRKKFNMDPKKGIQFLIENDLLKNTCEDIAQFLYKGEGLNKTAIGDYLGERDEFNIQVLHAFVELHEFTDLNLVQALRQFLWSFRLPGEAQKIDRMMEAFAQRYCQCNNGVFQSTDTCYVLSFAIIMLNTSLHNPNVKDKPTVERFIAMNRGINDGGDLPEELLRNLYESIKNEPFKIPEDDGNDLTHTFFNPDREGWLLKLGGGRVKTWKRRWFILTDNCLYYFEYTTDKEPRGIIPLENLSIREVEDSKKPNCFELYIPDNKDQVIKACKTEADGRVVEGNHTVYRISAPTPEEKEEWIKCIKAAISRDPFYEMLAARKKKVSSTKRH
UniProt O95476: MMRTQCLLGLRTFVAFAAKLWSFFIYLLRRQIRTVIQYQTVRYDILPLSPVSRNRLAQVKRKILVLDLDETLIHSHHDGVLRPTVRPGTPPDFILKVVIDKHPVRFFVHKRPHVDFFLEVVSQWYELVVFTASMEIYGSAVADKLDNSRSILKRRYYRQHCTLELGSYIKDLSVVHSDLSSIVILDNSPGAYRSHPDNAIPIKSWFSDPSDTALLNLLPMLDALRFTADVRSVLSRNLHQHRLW

What was measured:
Assay in all cases: log2 fold change, soluble protein after heating vs DMSO (PISA); higher = thermal stabilisation; K562 cells, 10 uM, 30 min; active = over 0.2 and 3.5 SD of the protein, either way, in both replicates (recomputed)
[1] = compound: C1=CC=C(C=C1)[C@H](COC2=CC3=C(C=C2)NC(=O)N3)NC(=O)C4=CC=CN(C4=O)CC5=CC(=C(C=C5)F)F
In short: (§1)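 Quantification of soluble protein used TMTpro 16plex LC-MS/MS, with channel sums equalised. Samples were the supernatant after 21,000xg for 90 min of pooled aliquots from K562 cells (2×10^6 cells/mL) treated with 10 μM compound for 30 min, heated for 3 min over 48°C-58°C, and extracted in PBS with 0.5% NP-40 at 4°C. Values, from duplicates, describe thermal stability against control samples on a log2 fold-change scale.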

[2] = compound: CC1=C(SC2=C1C(=N[C@H](C3=NN=C(N32)C)CC(=O)N)C4=CC=C(C=C4)Cl)C
In short: as §1

[3] = compound: CC1=C2C(=CC=C1)N=C(N(C2=O)C3=CC=CC=C3C)CN4C=NC5=C(N=CN=C54)N
In short: as §1

[4] = compound: Cc1sc2c(c1C)C(c1ccc(Cl)cc1)=N[C@@H](CC(=O)OC(C)(C)C)c1nnc(C)n1-2
In short: as §1

[5] = compound: c1ccc([C@@H]2C[C@H]2NC2CCNCC2)cc1
In short: as §1

Measured: log2 fold change

CYBA (UniProt P13498)
inactive: [1] 0.007 | [2] 0.034 | [3] -0.013 | [4] 0.027 | [5] 0.031

CWC27 (UniProt Q6UX04)
inactive: [1] -0.039 | [2] 0.097 | [3] 0.103 | [4] -0.03 | [5] -0.001

CTBP2 isoform 2 (UniProt P56545)
inactive: [1] -0.002 | [2] 0.033 | [3] 0.043 | [4] -0.037 | [5] -0.004

CYHR1 (UniProt E9PJD7)
inactive: [1] -0.017 | [2] 0.105 | [3] 0.141 | [4] -0.054 | [5] 0.024

DAG1 (UniProt Q14118)
inactive: [1] -0.068 | [2] 0.074 | [3] 0.072 | [4] 0.016 | [5] 0.049

DCK (UniProt P27707)
inactive: [1] 0.015 | [2] 0.046 | [3] -0.04 | [4] -0.031 | [5] 0.011

CUL1 (UniProt Q13616)
inactive: [1] 0.025 | [2] 0.02 | [3] -0.007 | [4] -0.016 | [5] 0.036

DCPS (UniProt Q96C86)
inactive: [1] 0.009 | [2] 0.032 | [3] -0.02 | [4] 0 | [5] 0.039

CTSB (UniProt P07858)
inactive: [1] -0.015 | [2] -0.024 | [3] 0.019 | [4] -0.024 | [5] -0.035

CUTC (UniProt Q9NTM9)
inactive: [1] -0.017 | [2] -0.006 | [3] 0.055 | [4] -0.017 | [5] 0.033

CSRP1 (UniProt P21291)
inactive: [1] 0.013 | [2] 0.04 | [3] 0.002 | [4] -0.021 | [5] -0.007

DAD1 (UniProt P61803)
inactive: [1] 0.088 | [2] -0.244 | [3] -0.321 | [4] 0.093 | [5] 0.094

CTTN (UniProt Q14247)
inactive: [1] 0.029 | [2] 0.003 | [3] 0.037 | [4] 0.003 | [5] 0.01

CYB5R4 (UniProt Q7L1T6)
inactive: [1] -0.081 | [2] 0.048 | [3] 0.049 | [4] 0.001 | [5] -0.032

DBI isoform 5 (UniProt P07108)
inactive: [1] 0.011 | [2] 0.107 | [3] 0.02 | [4] -0.042 | [5] -0.013

CTSV (UniProt O60911)
inactive: [1] -0.02 | [2] -0.087 | [3] 0.021 | [4] -0.065 | [5] 0.005

CT45A10 (UniProt P0DMU9)
inactive: [1] 0.075 | [2] -0.271 | [3] -0.299 | [4] 0.087 | [5] -0.132

CTIF isoform 2 (UniProt O43310)
inactive: [1] -0.089 | [2] 0.024 | [3] 0.02 | [4] -0.026 | [5] 0.007

4 successive entries already listed:
DAD1 (UniProt P61803)
inactive: [1] 0.088 | [2] -0.244 | [3] -0.321 | [4] 0.093 | [5] 0.094

CTTN (UniProt Q14247)
inactive: [1] 0.029 | [2] 0.003 | [3] 0.037 | [4] 0.003 | [5] 0.01

CYB5R4 (UniProt Q7L1T6)
inactive: [1] -0.081 | [2] 0.048 | [3] 0.049 | [4] 0.001 | [5] -0.032

DBI isoform 5 (UniProt P07108)
inactive: [1] 0.011 | [2] 0.107 | [3] 0.02 | [4] -0.042 | [5] -0.013

Remaining list, next part:

CST3 (UniProt P01034)
inactive: [1] -0.022 | [2] 0.03 | [3] 0.059 | [4] -0.059 | [5] -0.039

DCAF4L2 (UniProt Q8NA75)
inactive: [1] -0.065 | [2] 0.004 | [3] 0.027 | [4] 0.042 | [5] 0.076

DCAF10 (UniProt Q5QP82)
inactive: [1] 0.015 | [2] -0.018 | [3] 0.056 | [4] 0.013 | [5] -0.011

CSPP1 (UniProt Q1MSJ5)
inactive: [1] 0.015 | [2] -0.009 | [3] 0.09 | [4] 0.107 | [5] 0.049

DBT (UniProt P11182)
inactive: [1] -0.003 | [2] -0.004 | [3] 0.012 | [4] 0.062 | [5] 0.007

DCTD isoform 2 (UniProt P32321)
inactive: [1] 0.011 | [2] 0.064 | [3] 0.011 | [4] -0.035 | [5] 0

CYB561 (UniProt P49447)
inactive: [1] 0.077 | [2] 0.126 | [3] -0.046 | [4] 0.063 | [5] 0.062

DBN1 isoform 3 (UniProt Q16643)
inactive: [1] 0.049 | [2] 0.019 | [3] -0.027 | [4] 0.044 | [5] 0.004

CXorf38 (UniProt Q8TB03)
inactive: [1] -0.017 | [2] 0.073 | [3] 0.114 | [4] -0.004 | [5] -0.013

CUEDC2 (UniProt Q9H467)
inactive: [1] 0.036 | [2] 0.047 | [3] 0.038 | [4] 0.01 | [5] -0.022

CSTF1 (UniProt Q05048)
inactive: [1] 0.003 | [2] 0.096 | [3] 0.004 | [4] -0.007 | [5] -0.047

DAP (UniProt P51397)
inactive: [1] 0.046 | [2] -0.006 | [3] 0.003 | [4] -0.009 | [5] 0.051

CSTF2T (UniProt Q9H0L4)
inactive: [1] 0.012 | [2] 0.037 | [3] 0.086 | [4] -0.016 | [5] 0

DCAKD (UniProt Q8WVC6)
inactive: [1] -0.069 | [2] 0.036 | [3] 0.03 | [4] -0.021 | [5] -0.061

CTSA (UniProt P10619)
inactive: [1] 0.004 | [2] -0.063 | [3] -0.034 | [4] -0.018 | [5] 0.03

DCAF11 (UniProt Q8TEB1)
inactive: [1] -0.006 | [2] 0.05 | [3] 0.036 | [4] 0.043 | [5] -0.043

CYFIP2 (UniProt Q96F07)
inactive: [1] 0.006 | [2] 0.04 | [3] 0.026 | [4] -0.03 | [5] 0.002

DCAF1 (UniProt Q9Y4B6)
inactive: [1] -0.017 | [2] 0.027 | [3] 0.049 | [4] -0.023 | [5] -0.021

CTSC (UniProt P53634)
inactive: [1] 0.018 | [2] -0.012 | [3] -0.039 | [4] -0.01 | [5] 0.056

CYB5R1 (UniProt Q9UHQ9)
inactive: [1] 0.03 | [2] 0.041 | [3] 0.081 | [4] -0.024 | [5] -0.014

DAXX (UniProt Q9UER7)
inactive: [1] 0.166 | [2] 0.178 | [3] 0.197 | [4] 0.017 | [5] -0.101

CUL4B (UniProt K4DI93)
inactive: [1] 0.015 | [2] 0.036 | [3] 0.045 | [4] -0.039 | [5] -0.035

CYB5B, A0A499FJ32
inactive: [1] 0.029 | [2] 0.11 | [3] 0.233 | [4] -0.096 | [5] 0.028

CT45A5 (UniProt P0DMU8)
inactive: [1] 0.053 | [2] -0.162 | [3] -0.192 | [4] 0.114 | [5] 0

CYCS (UniProt P99999)
inactive: [1] 0.012 | [2] 0.002 | [3] 0.023 | [4] -0.013 | [5] 0.011

DBNL isoform 3 (UniProt Q9UJU6)
inactive: [1] -0.096 | [2] 0.002 | [3] 0.045 | [4] 0.029 | [5] 0.01

CUX1 isoform 2 (UniProt Q13948)
inactive: [1] -0.067 | [2] 0.013 | [3] 0 | [4] 0 | [5] 0.023

CUL4A (UniProt Q13619)
inactive: [1] -0.011 | [2] 0.027 | [3] 0.029 | [4] -0.011 | [5] 0.011

CTPS2 (UniProt Q9NRF8)
inactive: [1] 0.002 | [2] 0.002 | [3] 0.015 | [4] -0.01 | [5] 0.018

DCBLD1 (UniProt Q8N8Z6)
inactive: [2] 0.07 | [5] 0.02

CST6 (UniProt Q15828)
inactive: [4] -0.165

CTNNBIP1 (UniProt Q9NSA3)
inactive: [2] 0.127 | [5] -0.105

CTNS isoform 2 (UniProt O60931)
inactive: [2] 0.108 | [3] -0.048 | [5] -0.061

CTNNBL1 (UniProt Q8WYA6)
inactive: [1] 0.029 | [3] 0.17

CUL7 isoform 2 (UniProt Q14999)
inactive: [4] 0.107

CYTH1 (UniProt Q15438)
inactive: [3] 0.236 | [4] 0.115

DCP1B (UniProt Q8IZD4)
inactive: [1] 0.048 | [4] 0.061

CTDNEP1 (UniProt O95476)
inactive: [2] 0.095 | [3] 0.095 | [4] -0.496 | [5] -0.067
